Laboratory results: PubChem BioAssay AID1224826 (NIAID, 2016)
Test: 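Genes that change LPS-induced Tnf promoter activity in mouse macrophages when knocked down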 (primary screen). System: RAW264.7 G9 macrophages from mouse bearing reporters for p65 (GFP) and the Tnf promoter (mCherry). Reagents: siRNA pool against mouse genes, 100 nM. Duration: 16 h of LPS stimulation, after 2 days of siRNA transfection. Treatment: bacterial lipopolysaccharide (Salmonella minnesota R595), 10 ng/ml. Measured: 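Nuclear mCherry signal of the Tnf promoter reporter measured by imaging after background removal, scaled to each plate median and turned into robust z-scores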. Scale: Tnf reporter robust z-score: higher = stronger Tnf promoter reporter signal after LPS; Tnf reporter intensity: higher = stronger Tnf promoter reporter signal. Call rule: 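a well counts as active at a score of -1.3 or below (Tlr4 knock-down control median) or above 3 (raised signal); controls and wells holding fewer than 50 cells are excluded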. Meaning of the calls: active = Tnf reporter clearly lowered or raised; inactive = no clear change in Tnf reporter.
This is a random part of about 17,000 reagents tested. About 1,110 of all reagents (6.6%) count as active. 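Active means lowered or raised reporter signal; replicate intensities are raw and not normalised per plate.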 A number with no mark means an inactive call. The numbers tell different reagents against one gene apart. A reagent listed more than once was tested more than once; the source does not tell the runs apart. Further read-outs or replicates are left out here. Reagent sequences are not shown.

| Tnf reporter robust z-score | fewer than 50 cells in well | Tnf reporter intensity, replicate 1 | gene | reagent |
| --- | --- | --- | --- | --- |
| -0.38 | enough cells in well | 238 | Gdap1l1 (GeneID 228858) | 1 |
| 0.43 | enough cells in well | 189 | Cwf19l2 (GeneID 244672) | 1 |
| – | fewer than 50 cells per well; well left out of calls | 120 | Nhp2 (GeneID 52530) | 1 |
| – | fewer than 50 cells per well; well left out of calls | 171 | Ilkap (GeneID 67444) | 1 |
| -1.26 | enough cells in well | 215 | Ilkap (GeneID 67444) | 1 |
| 1.34 | enough cells in well | 357 | Glra2 (GeneID 237213) | 1 |
| -0.44 | enough cells in well | 111 | Plxdc2 (GeneID 67448) | 1 |
| -0.72 | enough cells in well | 193 | Ppan (GeneID 235036) | 1 |
| 0.34 | enough cells in well | 229 | Enam (GeneID 13801) | 1 |
| -1.1 | enough cells in well | 163 | Ddx42 (GeneID 72047) | 1 |
| -0.25 | enough cells in well | 223 | Ncam2 (GeneID 17968) | 1 |
| -0.27 | enough cells in well | 198 | Gna15 (GeneID 14676) | 1 |
| 0.36 | enough cells in well | 171 | Cep131 (GeneID 12009) | 1 |
| 1.81 | enough cells in well | 318 | Klhl15 (GeneID 236904) | 1 |
| -0.23 | enough cells in well | 261 | Eola1 (GeneID 68618) | 1 |
| – | fewer than 50 cells per well; well left out of calls | 136 | Mpc2 (GeneID 70456) | 1 |
| 0.31 | enough cells in well | 281 | Chd2 (GeneID 244059) | 1 |
| -0.1 | enough cells in well | 197 | Prdm4 (GeneID 72843) | 1 |
| 0.48 | enough cells in well | 351 | Or2c1 (GeneID 18312) | 1 |
| -1.02 | enough cells in well | 151 | Vtcn1 (GeneID 242122) | 1 |
| 0.39 | enough cells in well | 161 | Gimap9 (GeneID 317758) | 1 |
| 2.82 | enough cells in well | 378 | Dnpep (GeneID 13437) | 1 |
| 0.9 | enough cells in well | 127 | Tas2r123 (GeneID 353167) | 1 |
| 1.47 | enough cells in well | 346 | Zfp105 (GeneID 22646) | 1 |
| 0.92 | enough cells in well | 171 | Agk (GeneID 69923) | 1 |
| – | fewer than 50 cells per well; well left out of calls | 278 | Agk (GeneID 69923) | 1 |
| 0.63 | enough cells in well | 204 | Cep15 (GeneID 218734) | 1 |
| 1.47 | enough cells in well | 252 | Atpaf1 (GeneID 230649) | 1 |
| -0.4 | enough cells in well | 161 | Tssk4 (GeneID 71099) | 1 |
| 1.2 | enough cells in well | 188 | Psmg1 (GeneID 56088) | 1 |
| -0.36 | enough cells in well | 227 | Srpx (GeneID 51795) | 1 |
| -0.56 | enough cells in well | 143 | Adora3 (GeneID 11542) | 1 |
| – | fewer than 50 cells per well; well left out of calls | 128 | Adora3 (GeneID 11542) | 2 |
| -0.83 | enough cells in well | 56.4 | Or7g27 (GeneID 258249) | 1 |
| -1.54 (active) | enough cells in well | 57.5 | Zkscan6 (GeneID 52712) | 1 |
| 0.46 | enough cells in well | 222 | Defb8 (GeneID 244334) | 1 |
| 0.09 | enough cells in well | 267 | Smarcad1 (GeneID 13990) | 1 |
| 0.83 | enough cells in well | 151 | Naip5 (GeneID 17951) | 1 |
| -0.3 | enough cells in well | 129 | Kcnu1 (GeneID 16532) | 1 |
| 0.85 | enough cells in well | 308 | Tef (GeneID 21685) | 1 |
| 2.32 | enough cells in well | 205 | Zfp346 (GeneID 26919) | 1 |
| 2.14 | enough cells in well | 386 | Mdga2 (GeneID 320772) | 1 |
| -0.69 | enough cells in well | 202 | Stac (GeneID 20840) | 1 |
| -0.08 | enough cells in well | 292 | Rabggtb (GeneID 19352) | 1 |
| 3.65 (active) | enough cells in well | 517 | Med11 (GeneID 66172) | 1 |
| -1.32 (active) | enough cells in well | 105 | Or2aa1 (GeneID 258421) | 1 |
| – | fewer than 50 cells per well; well left out of calls | 109 | Serf2 (GeneID 378702) | 1 |
| -0.51 | enough cells in well | 121 | Phf10 (GeneID 72057) | 1 |
| 3.34 (active) | enough cells in well | 440 | Fitm2 (GeneID 228859) | 1 |
| 1.16 | enough cells in well | 136 | Steap3 (GeneID 68428) | 1 |
| -0.02 | enough cells in well | 242 | Pcdh18 (GeneID 73173) | 1 |
| 0.05 | enough cells in well | 255 | Aktip (GeneID 14339) | 1 |
| -1.1 | enough cells in well | 165 | Fxyd6 (GeneID 59095) | 1 |
| – | fewer than 50 cells per well; well left out of calls | 120 | Psmd6 (GeneID 66413) | 1 |
| -0.55 | enough cells in well | 151 | Or5k8 (GeneID 259004) | 1 |
| 0.34 | enough cells in well | 226 | Acot11 (GeneID 329910) | 1 |
| -0.51 | enough cells in well | 187 | Klra17 (GeneID 170733) | 1 |
| 0.43 | enough cells in well | 175 | Or4z4 (GeneID 258674) | 1 |

Ordered by “Tnf reporter robust z-score” (descending): some entries from above.
| Tnf reporter robust z-score | fewer than 50 cells in well | Tnf reporter intensity, replicate 1 | gene | reagent |
| --- | --- | --- | --- | --- |
| 1.34 | enough cells in well | 357 | Glra2 (GeneID 237213) | 1 |
| -0.44 | enough cells in well | 111 | Plxdc2 (GeneID 67448) | 1 |
